The text below walks through data of patent US20200061153A1 (BAYLOR COLLEGE OF MEDICINE, published 2020).

The target of assay [1] is T1, P-selectin/Fc chimeric protein (UniProt P16109 42-771).
T1 construct: also called P-sel/Fc; P-selectin/Fc protein; not shown: Fc part
T1 sequence (looked up): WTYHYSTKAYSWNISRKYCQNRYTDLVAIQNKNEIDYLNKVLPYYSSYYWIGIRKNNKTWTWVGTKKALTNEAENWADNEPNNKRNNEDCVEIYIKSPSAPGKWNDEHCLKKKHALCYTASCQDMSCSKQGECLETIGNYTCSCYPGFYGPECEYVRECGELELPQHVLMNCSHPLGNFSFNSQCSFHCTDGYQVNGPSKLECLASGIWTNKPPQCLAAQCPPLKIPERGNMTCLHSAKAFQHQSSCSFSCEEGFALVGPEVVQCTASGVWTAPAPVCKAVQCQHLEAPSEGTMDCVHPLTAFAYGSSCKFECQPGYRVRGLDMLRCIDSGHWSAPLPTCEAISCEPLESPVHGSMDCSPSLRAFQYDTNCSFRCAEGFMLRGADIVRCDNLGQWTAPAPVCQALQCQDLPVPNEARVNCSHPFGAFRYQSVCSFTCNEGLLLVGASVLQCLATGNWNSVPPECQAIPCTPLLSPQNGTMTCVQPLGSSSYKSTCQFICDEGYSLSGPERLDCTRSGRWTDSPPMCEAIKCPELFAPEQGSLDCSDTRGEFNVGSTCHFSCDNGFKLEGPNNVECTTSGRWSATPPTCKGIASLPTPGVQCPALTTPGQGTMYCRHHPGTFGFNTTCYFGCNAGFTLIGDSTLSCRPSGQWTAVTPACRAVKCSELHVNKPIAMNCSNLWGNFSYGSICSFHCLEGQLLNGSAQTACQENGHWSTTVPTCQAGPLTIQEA
The assay is described as follows: SPR (BIACore), response (RU) against concentration (M); text: binding to immobilized P-sel/Fc, IgG as control. Here is the method: (§1) The observations in these experiments, in certain embodiments, are attributed to srhVim either affecting P-selectin, PSGL-1, or both. ELISA was performed by coating 96-well plates with either PSGL-1/Fc protein (10 μg/mL), P-selectin/Fc protein (10 μg/mL), or BSA (10 μg/mL) and adding various concentrations of srhVim to each well. Detection was through anti-His/HRP antibodies. Increasing amounts of srhVim bound to P-selectin/Fc protein and reached saturation at 20 μg/mL. There was no binding of srhVim to PSGL-1/Fc (FIG. 6B).
In general terms: In SPR one partner is held on a chip, and binding of the other changes the refractive index at the surface.

The target of assay [2] is T1, P-selectin/Fc chimeric protein. The assay is described as follows: SPR (BIACore), binding to immobilized P-sel/Fc, IgG control. How it is done: as §1

B1: rod domain of human vimentin (amino acids 96-407), expressed from pET30 in E. coli (other)
chain: FKNTRTNEKVELQELNDRFANYIDKVRFLEQQNKILLAELEQLKGQGKSRLGDLYEEEMRELRRQVDQLTNDKARVEVERDNLAEDIMRLREKLQEEMLQREEAENTLQSFRQDVDNASLARLDLERKVESLQEEIAFLKKLHEEEIQELQAQIQEQHVQIDVDVSKPDLTAALRDVRQQYESVAAKNLQEAEEWYKSKFADLSEAANRNNDALRQAKQESTEYRRQVQSLTCEVDALKGTNESLERQMREMEENFAVEAANYQDTIGRLQDEIQNMKEEMARHLREYQDLLNVKMALDIEIATYRKLLEGE
notes: also called ROD vimentin; a portion of vimentin; not shown: His tag from pET30 (Ni2+ purification)
For orientation: Kd means the concentration at which binding is half-saturated. Read a high Kd as a looser complex. Take B1: the Kd was 125 nM in assay [1] and around 125 nM in assay [2].
